Test results: PubChem BioAssay AID485298 (National Center for Advancing Translational Sciences (NCATS), 2010)
Among all 320,000 compounds or so, about 740 (0.23%) were called active. The inconclusive results got no clear call from the source; some entries with a clear call stand among them for comparison. The call rests on the fitted dose curve; in most records, active means well fitted activation curve with a large enough effect; inconclusive means small, poorly fitted or top-dose-only effect; inactive means no such curve, though single readings can be large or run the other way. Potencies of inconclusive entries are doubtful fits and often do not repeat.

Assay: qHTS Assay for Small Molecule Inhibitors of Mitochondrial Division or Activators of Mitochondrial Fusion; further: nearly all actives have a fitted effect of over 45% in size
Conditions: S. cerevisiae fusion-defective mutant growth rescue, CellTiterGlo 48 h; series mostly up to 46.1 µM
Procedure, shortened: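 Read-out: ATP-based luminescence (CellTiterGlo, 10 min ambient) reporting growth of fusion-defective ts yeast after 48 hours at 37C on glycerol/ethanol YPEG medium in the presence of compound.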
Potency means the concentration at half of the fitted maximal effect.

| Compound | Potency |
| --- | --- |
| COc1ccccc1NC(=O)CN1CCN(CC(=O)Nc2ccc(C)c(F)c2)CC1 | inactive |
| Clc1ccc(CN(CC2CCCO2)C(c2cccs2)c2nnnn2C2CCCC2)cc1 (centres undefined) | inactive |
| COc1cc(Cl)c(S(=O)(=O)N2CCN(Cc3ccc4c(c3)OCO4)CC2)cc1Cl | inconclusive: 35.5 µM [activator, single point] |
| CCn1c(O)c(N=NC(=O)CNc2cccc(C)c2)c2ccccc21 | inconclusive: 22.4 µM [activator, single point] |
| COc1ccc(C(=O)OCCNC(=O)c2c(Cl)nc3ccccn23)cc1 | inconclusive: 20 µM [activator, partial curve] |
| c1ccc(COc2ccc(CNCc3cccs3)cc2)cc1 | inactive |
| Fc1cccc(Cn2cc(C(=S)N3CCCCC3)c3ccccc32)c1 | inconclusive: 35.5 µM [activator, single point] |
| CSc1cccc(NC(=S)N2CCCN(Cc3cccc(Cl)c3)C2)c1 | inactive |
| CC(=O)CCC1C2C(O)C(C(C)C)C(OC(=O)/C=C/c3ccccc3)CC12C (centres undefined) | active: 3.55 µM |
| CCOC(=O)c1c(-c2ccc(C)cc2)csc1NC(=O)CCN1CC(C)OC(C)C1 (centres undefined) | active: 12.6 µM |
| O=C(c1cn(-c2ccccc2)nc1-c1ccc(Br)cc1)N1CCOCC1 | active: 11.2 µM |
| COc1ccc(Nc2nc(Cl)nc(N3CCN(c4ccc(OC)cc4)CC3)n2)cc1 | inconclusive: 7.94 µM [activator, partial curve] |
| CCC(C)Sc1ccc([C@H]2N[C@@](Cc3ccccc3)(C(=O)OC)[C@H]3C(=O)N(CC)C(=O)[C@@H]23)cc1 (some centres undefined) | inconclusive: 12.6 µM [activator, partial curve] |
| COc1ccc(C(c2nnnn2CC2CCCO2)N2CCN(c3cccc(C)c3C)CC2)cc1 (centres undefined) | inconclusive: 22.4 µM [activator, single point] |
| COc1ccccc1C(=O)NNC(=O)C(=O)Nc1ccc(C)cc1 | inconclusive: 12.6 µM [activator, partial curve] |
| Cc1cc(C(=O)CSc2nnnn2-c2ccc(O)cc2)c(C)n1Cc1ccc2c(c1)OCO2 | inconclusive: 11.2 µM [activator, single point] |
| Cc1ccccc1-c1ccc(C(=O)Nc2cccc(F)c2)o1 | inconclusive: 35.5 µM [activator, single point] |
| Cc1cc(C)c(NC(=O)c2sc3nc4c(cc3c2N)C(=O)CC(C)(C)C4)c(C)c1 | active: 12.6 µM |
| Cc1ccc(F)c(Cn2cnc3c(cnn3C(C)(C)C)c2=O)c1Cl | inconclusive: 25.1 µM [activator, single point] |
| COc1ccc(-c2ccnc3c(C#N)cnn23)cc1 | inactive |
| Cc1ccc(NC(=O)c2scc3c2CCCC3)cc1 | inconclusive: 17.8 µM [activator, single point] |
| COc1ccc(C2=Nn3c(nnc3-c3ccccn3)SC2)cc1OC | inconclusive: 1 µM [activator, full curve] |
| O=C(OCC#CCSc1nnc(-c2ccc(Br)cc2)o1)c1cccs1 | inconclusive: 25.1 µM [activator, single point] |

| Compound | Potency |
| --- | --- |
| COc1ccc(OCCSc2nc(N)cc(N)n2)cc1 | inactive |
| NC(N)=N/N=C/c1c(Cl)cccc1Cl | inconclusive: 25.9 µM [activator, single point] |
| Cn1c(=O)c2c(nc(Br)n2Cc2c(F)cccc2Cl)n(C)c1=O | inconclusive: 3.98 µM [activator, partial curve] |
| COc1ccc(OC)c(-c2csc(N(C)C(=O)Cc3ccccc3)n2)c1 | inconclusive: 15.8 µM [activator, partial curve] |
| CCOc1cc(C)c(C(C)C)cc1S(=O)(=O)n1cnc(C)c1 | inconclusive: 12.6 µM [activator, partial curve] |
| CCN(c1cccc(C)c1)S(=O)(=O)c1ccc2c(c1)NC(=O)CS2 | inconclusive: 12.6 µM [activator, partial curve, poor fit] |
| CC1CC(N(C(=O)c2ccc(Cl)cc2)c2ccccc2)c2ccccc2N1C(=O)c1ccco1 (centres undefined) | inconclusive: 28.2 µM [activator, single point] |
| O=C(Nc1nnc(SCc2ccc(F)cc2)s1)c1ccc2ncsc2c1 | inactive |
| CCN(CC)CCCN(Cc1cc2cc3c(cc2[nH]c1=O)OCCO3)C(=O)Nc1ccc(F)cc1 | inactive |
| Cc1ccc(OCC(=O)Nc2ccc(C)c(S(=O)(=O)N3CCCCC3)c2)c([N+](=O)[O-])n1 | inactive |
| CSc1nc2ccc(Br)cc2[nH]1 | inconclusive: 35.5 µM [activator, partial curve] |
| CCOC(=O)Cn1cc(C(=O)c2ccco2)c2ccccc21 | inactive |
| CC1=Nc2ccccc2/C1=C\c1sc(Nc2ccc(C)cc2)nc1O | inconclusive: 11.2 µM [activator, partial curve] |
| Cc1ccc(SCC(=O)Nc2cc([N+](=O)[O-])ccc2O)cc1 | inconclusive: 12.6 µM [activator, partial curve] |
| Cc1cccc(CSc2nn3c(=O)c(C)nnc3s2)c1 | inactive |
| COc1cccc(-n2c(CN3CCN(c4ccccn4)CC3)nc3ccc([N+](=O)[O-])cc3c2=O)c1 | inconclusive: 12.6 µM [activator, partial curve] |
| O=[N+]([O-])c1ccc(Oc2ccc(S(=O)(=O)Nc3ccccc3)cc2)cc1 | inconclusive: 35.5 µM [activator, single point] |
| Oc1cc(NCc2ccccc2)cc2cccnc12 | inconclusive: 17.8 µM [activator, single point] |
| C[C@H]1C[C@H]2[C@@H]3CCC4=CC(=O)C=C[C@]4(C)[C@@]3(Cl)[C@@H](O)C[C@]2(C)[C@@]1(O)C(=O)CO | inactive |
| Cc1ccc2oc(C(F)(F)C(F)F)cc(=O)c2c1 | inactive |
| O=[N+]([O-])c1ccc2nc(-c3ccccc3[N+](=O)[O-])[nH]c2c1 | inconclusive: 31.6 µM [activator, single point] |
| COc1ccc(C2=NN(c3nc(-c4ccc(CNC(C)=O)cc4)cs3)C(c3ccco3)C2)cc1 (centres undefined) | inactive |
| COc1ccc(C2c3[nH]c4ccccc4c3CCN2CCCn2cccn2)cc1C (centres undefined) | inconclusive: 3.55 µM [activator, partial curve] |

4 structures already listed, arranged by count of non-hydrogen atoms, ascending.

| Compound | Potency |
| --- | --- |
| Cc1ccc2oc(C(F)(F)C(F)F)cc(=O)c2c1 | inactive |
| Cc1ccc(SCC(=O)Nc2cc([N+](=O)[O-])ccc2O)cc1 | inconclusive: 12.6 µM [activator, partial curve] |
| O=C(Nc1nnc(SCc2ccc(F)cc2)s1)c1ccc2ncsc2c1 | inactive |
| COc1cccc(-n2c(CN3CCN(c4ccccn4)CC3)nc3ccc([N+](=O)[O-])cc3c2=O)c1 | inconclusive: 12.6 µM [activator, partial curve] |

Additional results.

| Compound | Potency |
| --- | --- |
| O=C(COc1ccccc1[N+](=O)[O-])Nc1ccccc1N1CCCC1 | inconclusive: 20 µM [activator, partial curve] |
| C/C=C/c1ccc(OCCOc2cc(C=O)ccc2OC)c(OC)c1 | inconclusive: 35.5 µM [activator, single point] |
| C=C(C)CSc1nc(N)c(C#N)c(-c2ccc(C)cc2)c1C#N | inconclusive: 3.55 µM [activator, partial curve] |
| COc1cccc2cc(-c3ccccc3)c(=O)oc12 | inconclusive: 35.5 µM [activator, single point] |
| O=C(CN1CCN(c2ccccc2F)CC1)Nc1ccc2c(c1)CCC2 | inconclusive: 31.6 µM [activator, single point] |
| CCOC(=O)CSc1c(-c2ccc(Cl)cc2)[nH]c2ccccc12 | inconclusive: 12.6 µM [activator, partial curve] |
| CCN(Cc1ccccc1)S(=O)(=O)c1cc(C(=O)NC2CCCCCC2)ccc1OC | inactive |
| O=C(Nc1ccc2c(c1)OCO2)c1cnccn1 | inconclusive: 25.1 µM [activator, single point] |
| CC1Cc2ccccc2N1C(=O)COC(=O)C1(c2ccccc2F)CCCC1 (centres undefined) | inconclusive: 20 µM [activator, partial curve] |
| Cc1ccc(C)c(N2CCN(S(=O)(=O)c3cccc4cccnc34)CC2)c1 | inconclusive: 35.5 µM [activator, single point] |
| CCOC(=O)c1ccc(Cn2cnc3ccccc3c2=O)cc1 | inconclusive: 7.08 µM [activator, partial curve] |
| O=C(Nc1ccc(Br)cc1)c1cccc(-n2cnnn2)c1 | inconclusive: 11.2 µM [activator, partial curve] |
| Cc1ccc(-c2cc(-c3cccc(F)c3)n[nH]2)c(O)c1 | inconclusive: 10 µM [activator, partial curve] |
| Cc1ccccc1Nc1nc(-c2ccccc2)c(C(=O)Nc2cccnc2)s1 | inconclusive: 17.8 µM [activator, single point] |
| Cc1cc2ccccc2n1CCNC(=O)c1ccccc1 | inactive |
| CCn1c(CNc2ccc(Cl)cc2)nnc1SCc1ccc(C)cc1 | inconclusive: 25.1 µM [activator, partial curve, poor fit] |
| CC(=O)c1ccc2c(c1)C1C=CCC1C(c1cc3c(cc1Br)OCO3)N2 (centres undefined) | active: 12.6 µM |
| O=C(COC(=O)CNC(=O)C1CCCCC1)Nc1ccc2c(c1)OCCO2 | inconclusive: 28.2 µM [activator, single point] |
| Cn1c(=O)c2c(O)c(Cc3ccccc3)c(=O)[nH]c2n(C)c1=O | active: 20 µM |
| O=C1[C@@H]2Cc3c([nH]c4ccccc34)C(c3ccccc3)N2C(=O)CN1C1CC1 (some centres undefined) | inconclusive: 35.5 µM [activator, single point] |
| CCCCCc1nc2c(c3c1CCCC3)CCCC2 | inconclusive: 22.4 µM [activator, single point] |
| O=C1c2c(O)cc(O)cc2OC(c2ccc(O)c(O)c2)C1O (centres undefined) | inconclusive: 3.66 µM [activator, full curve, poor fit] |
| O=c1ccc(-c2ccccc2)nn1Cc1ccc(F)cc1Cl | inconclusive: 12.6 µM [activator, partial curve] |
